Source: PMC6457570
Results are given in words; binding and its absence hold for the method and conditions named. In cells and extracts the contact can be indirect. Some binding calls cover weakened binding; strength is not graded here. Tags and fused reporters may be left off the sequences shown.

Amino acid sequences for entries named in this document (tags omitted).
UniProt Q91DS3: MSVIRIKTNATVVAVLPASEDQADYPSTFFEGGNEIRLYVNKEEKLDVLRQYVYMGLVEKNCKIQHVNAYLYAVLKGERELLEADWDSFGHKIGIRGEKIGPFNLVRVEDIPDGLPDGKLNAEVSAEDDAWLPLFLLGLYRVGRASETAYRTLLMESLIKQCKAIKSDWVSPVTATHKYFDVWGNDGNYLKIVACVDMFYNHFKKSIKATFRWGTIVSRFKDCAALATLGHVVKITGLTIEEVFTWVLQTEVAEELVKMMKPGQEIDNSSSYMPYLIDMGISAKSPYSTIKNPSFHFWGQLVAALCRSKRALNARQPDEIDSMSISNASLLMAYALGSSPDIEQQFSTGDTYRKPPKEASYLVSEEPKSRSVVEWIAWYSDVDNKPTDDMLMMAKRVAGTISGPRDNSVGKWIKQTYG

Columns and labels:
[1] = target: SVCV N protein with Flag tag (N-Flag) (spring viraemia of carp virus (SVCV)) (UniProt Q91DS3); assay: co-IP; HEK 293T cells co-transfected (5 ug each plasmid), lysed after 24 h in RIPA buffer (1% NP-40, 50 mM Tris-HCl pH 7.5, 150 mM NaCl, 1 mM EDTA, 0.25% sodium deoxycholate); IP with anti-Flag affinity gel overnight at 4°C; immunoblot with anti-Myc
[2] = target: T1, SVCV P protein with Flag tag (P-Flag) (spring viraemia of carp virus (SVCV)) (UniProt Q91DS2); assay: as above
T1 sequence: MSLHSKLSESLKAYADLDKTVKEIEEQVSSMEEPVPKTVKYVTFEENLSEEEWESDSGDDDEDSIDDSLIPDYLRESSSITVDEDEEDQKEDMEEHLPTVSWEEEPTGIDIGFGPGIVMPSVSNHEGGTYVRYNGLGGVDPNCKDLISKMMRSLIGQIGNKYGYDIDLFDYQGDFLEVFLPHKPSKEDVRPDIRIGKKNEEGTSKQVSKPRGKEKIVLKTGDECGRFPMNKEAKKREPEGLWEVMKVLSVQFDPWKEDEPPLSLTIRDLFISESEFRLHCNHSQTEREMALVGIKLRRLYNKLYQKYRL

B1: zebrafish p53 with a Myc tag (p53-Myc) (protein, UniProt P79734 1-373)
chain: MAQNDSQEFAELWEKNLIIQPPGGGSCWDIINDEEYLPGSFDPNFFENVLEEQPQPSTLPPTSTVPETSDYPGDHGFRLRFPQSGTAKSVTCTYSPDLNKLFCQLAKTCPVQMVVDVAPPQGSVVRATAIYKKSEHVAEVVRRCPHHERTPDGDNLAPAGHLIRVEGNQRANYREDNITLRHSVFVPYEAPQLGAEWTTVLLNYMCNSSCMGGMNRRPILTIITLETQEGQLLGRRSFEVRVCACPGRDRKTEESNFKKDQETKTMAKTTTGTKRSLVKESSSATLRPEGSKKAKGSSSDEEIFTLQVRGRERYEILKKLNDSLELSDVVPASDAEKYRQKFMTKNKKENRESSEPKQGKKLMVKDEGRSDSD
For B1, the binding [1] was “binds” and the binding [2] was “binds”.
